Laboratory results reported in patent US20110003343, “CONJUGATES OF BIOMOLECULES TO NANOPARTICLES” (LIFE TECHNOLOGIES CORPORATION, published 2011).
Positions count from the first letter of the chain named. Protein sequences can lack the tags named with them.

What was measured:
Assay in all cases: activity assay
[1] = molecular target: T1, PKA-tagged Phi29 DNA polymerase (Bacteriophage phi29) (UniProt P03680); details: primer extension; purified recombinant protein; label: fluorescein-dT at X; folded or branched DNA
T1 sequence: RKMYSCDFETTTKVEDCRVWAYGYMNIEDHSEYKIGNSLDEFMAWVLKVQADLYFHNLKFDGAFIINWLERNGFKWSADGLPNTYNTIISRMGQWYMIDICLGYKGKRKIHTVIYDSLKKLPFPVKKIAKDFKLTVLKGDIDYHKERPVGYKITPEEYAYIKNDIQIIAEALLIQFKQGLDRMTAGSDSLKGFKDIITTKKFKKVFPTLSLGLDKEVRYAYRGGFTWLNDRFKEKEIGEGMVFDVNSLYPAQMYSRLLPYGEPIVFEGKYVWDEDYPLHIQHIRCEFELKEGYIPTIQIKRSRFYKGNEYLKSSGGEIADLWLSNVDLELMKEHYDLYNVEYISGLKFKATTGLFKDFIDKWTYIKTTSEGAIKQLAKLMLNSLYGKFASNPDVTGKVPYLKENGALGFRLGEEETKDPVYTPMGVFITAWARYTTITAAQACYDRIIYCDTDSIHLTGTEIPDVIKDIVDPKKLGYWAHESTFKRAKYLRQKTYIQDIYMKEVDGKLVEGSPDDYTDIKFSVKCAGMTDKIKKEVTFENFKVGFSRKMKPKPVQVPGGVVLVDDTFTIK

[2] = molecular target: T2, Phi29 DNA polymerase (HRP-treated quantum dot conjugate) (Bacteriophage phi29) (UniProt P03680); details: primer extension; 10 mM MgCl2, 20 uM dATP; purified recombinant protein; protein details: His tag, HRP-treated quantum dot conjugate; label: fluorescein-dT at …; folded or branched DNA
T2 sequence (looked up, limits assumed): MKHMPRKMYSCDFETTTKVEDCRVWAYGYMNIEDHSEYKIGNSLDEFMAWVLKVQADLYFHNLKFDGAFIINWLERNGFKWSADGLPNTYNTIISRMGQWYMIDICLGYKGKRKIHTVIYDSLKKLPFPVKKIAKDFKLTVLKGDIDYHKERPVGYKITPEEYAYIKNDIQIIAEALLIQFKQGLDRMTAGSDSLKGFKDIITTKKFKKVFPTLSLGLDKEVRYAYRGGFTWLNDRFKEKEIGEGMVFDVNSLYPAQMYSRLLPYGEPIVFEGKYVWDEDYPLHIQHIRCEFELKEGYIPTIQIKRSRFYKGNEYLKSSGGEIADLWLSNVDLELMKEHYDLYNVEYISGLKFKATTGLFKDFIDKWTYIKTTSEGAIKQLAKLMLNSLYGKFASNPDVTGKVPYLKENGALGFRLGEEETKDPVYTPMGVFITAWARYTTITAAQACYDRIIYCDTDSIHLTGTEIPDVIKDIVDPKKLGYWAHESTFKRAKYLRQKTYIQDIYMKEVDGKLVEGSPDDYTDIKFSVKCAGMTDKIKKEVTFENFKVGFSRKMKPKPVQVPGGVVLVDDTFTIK

[3] = molecular target: T3, His-tagged F-linker Phi29 DNA polymerase D169A (exo-) (Bacteriophage phi29) (UniProt P03680); details: primer extension; 20 uM dATP, Mg/Mn; purified recombinant protein; protein details: His tag and F-linker, linked to quantum dot; label: fluorescein-dT at X; folded or branched DNA
T3 sequence: T1 sequence with D164A

Measured: activity on this sequence

TTTTTTTGCAGGTGACAGGTTTTTCCTGTCACCTGC [oligo 221]
active: [1] | [2] | [3]
